From paper PMC7862700 come the findings set out here.

The list shows a part of the results, in another mix than the full data. At the low end of the ranking the order means little.

The assay has as its target T1, ELF3 (UniProt P78545).
T1 sequence: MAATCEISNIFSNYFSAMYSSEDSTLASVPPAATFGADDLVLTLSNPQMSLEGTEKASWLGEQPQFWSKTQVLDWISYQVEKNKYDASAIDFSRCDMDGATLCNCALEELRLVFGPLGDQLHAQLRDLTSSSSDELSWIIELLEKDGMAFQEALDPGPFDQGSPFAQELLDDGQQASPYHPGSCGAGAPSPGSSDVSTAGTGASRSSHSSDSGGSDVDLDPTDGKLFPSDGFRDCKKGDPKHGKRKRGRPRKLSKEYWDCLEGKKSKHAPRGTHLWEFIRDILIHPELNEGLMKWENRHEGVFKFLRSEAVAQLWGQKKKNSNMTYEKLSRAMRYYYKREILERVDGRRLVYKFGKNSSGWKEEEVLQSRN
The assay is described as follows: DAPPL (digital affinity profiling via proximity ligation, sequencing). The following applies: 10 mM Tris-HCl pH 7.5, 50 mM NaCl, 1 mM DTT, 4% glycerol, room temperature, 30 min; GST-TFs on glutathione beads, 16-mer random dsDNA library, 0.1% …; high values mean tight binding; double strand, one strand shown; scale: fold enrichment (6-mer frequency, TF over GST control).
In turn, ACGCTT had a binding signal of 1.55.
In the case of CGTAAC it was 1.18; in that of CCTCAG, 1.35.
For ACGTTT the value was 1.08; for TGCGGC, 1.33.
For TTGGAA the value was 1.06; for GAACTT, 1.5; for TATACC, 1.12.
For ATTGGC, the binding signal is 1.24.
TCTATA returned a binding signal of 1.08.
For TCCATG the value was 1.25.
With CCCTGT, the binding signal came out at 1.08.
For GTAATT, the binding signal was 1.19.
In the case of CCGGCC it was 1.14.
For AGCTCT the value was 1.21; for TCTCGT, 1.65.
Take ATGACC: the binding signal came to 1.63.
CTCATA gave a binding signal of 1.34.
In the case of AAGGCA it was 0.926.
In the case of TTTTAG it was 0.975.
As for CGTCCT, the binding signal was 1.31.
For TCATCA the value was 1.07; for CGTATA, 1.24; for TTCGCG, 0.97.
In the case of GAAACT it was 1.19.
Consider GTAACC, for which the binding signal is 0.973.
ATCAAA displayed a binding signal of 1.04.
In the case of TGTTGT it was 1; in that of CGTCAC, 1.21; in that of TGATTT, 0.984.
Sequence TTCCGG came in with a binding signal of 5.14.
In the case of CTGACA it was 1.25.
TGCACA showed a binding signal of 1.26.
On to CCGACT, for which the binding signal was found to be 1.55.
As for AGGATG, the binding signal was determined as 0.943.
Sequence GCTCGA yielded a binding signal of 1.24.
In the case of AGTATG it was 1.08; in that of GCCCGC, 0.993; in that of CATATG, 0.996.
CAGATG: the binding signal came out at 0.994.
